Data as given in PubChem BioAssay AID504774 (Drosophila RNAi Screening Center, 2011).
Screen: 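Fly genes whose loss alters survival after alkylation damage to DNA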 (primary screen). System: Drosophila Kc167 cells. Knock-down reagent: long dsRNA against Drosophila genes, about 0.25 µg dsRNA per well. Duration: about 6 days: 3 days knock-down, then 3 days with or without MMS. Conditions: methyl methanesulphonate 0.004% (w/v) for 3 days after knock-down. Measured: 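Viability in wells given MMS, read as ATP luminescence, normalised by quantiles plate by plate and averaged across replicates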. Direction: mean viability with MMS and viability with MMS: higher = more surviving cells after MMS.
The screen tested about 23,000 reagents; below is a random part of those that have a named target and a result. 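Values are quantile-normalised luminescence on an arbitrary scale; higher means more cells surviving MMS.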 Reagent sequences are not shown.

predicted target	amplicon	mean viability with MMS	viability with MMS, replicate 1	viability with MMS, replicate 2
CG1231 (GeneID 38060)	DRSC08267	3.51e6	3.92e6	4.04e6
yellow-e2 (GeneID 41652)	DRSC15169	3.47e6	3.94e6	3.93e6
CG7458 (GeneID 40441)	DRSC11829	3.75e6	4.28e6	3.95e6
CG7458 (GeneID 40441)	DRSC21340	3.79e6	4.29e6	4.25e6
CG14932 (GeneID 34589)	DRSC02414	3.40e6	3.84e6	3.81e6
CG17264 (GeneID 33511)	DRSC00500	3.36e6	3.58e6	3.92e6
DIP-iota (GeneID 33925)	DRSC02140	3.58e6	4.13e6	3.97e6
ckn (GeneID 36673)	DRSC06149	3.17e6	3.67e6	3.65e6
cal1 (GeneID 42065)	DRSC15725	3.58e6	4.05e6	4.06e6
CG6873 (GeneID 32861)	DRSC20014	3.40e6	3.84e6	3.85e6
Uxs (GeneID 38911)	DRSC10941	3.50e6	3.96e6	3.97e6
hb (GeneID 41032)	DRSC16963	3.42e6	3.88e6	3.84e6
CG5011 (GeneID 50196)	DRSC00039	3.62e6	4.08e6	4.13e6
CG5011 (GeneID 50196)	DRSC00674	3.67e6	4.33e6	4.03e6
CG43707 (GeneID 33601)	DRSC00280	3.60e6	4.00e6	4.13e6
CG43707 (GeneID 33601)	DRSC22869	2.92e6	3.70e6	3.64e6
Trim9 (GeneID 34453)	DRSC02242	3.40e6	3.74e6	3.93e6
RpS6 (GeneID 31700)	DRSC18712	2.46e6	3.14e6	2.90e6
nesd (GeneID 35298)	DRSC02099	3.34e6	3.84e6	3.67e6
AGO1 (GeneID 36544)	DRSC05912	3.42e6	3.92e6	3.80e6
Drsl1 (GeneID 326207)	DRSC22490	3.61e6	4.06e6	4.08e6
CG16903 (GeneID 31178)	DRSC18561	3.28e6	3.80e6	3.72e6
CG13858 (retired record) (GeneID 50058)	DRSC14708	3.65e6	4.18e6	4.09e6
CG13858 (retired record) (GeneID 50058)	DRSC14709	3.51e6	4.00e6	3.96e6
CG13858 (retired record) (GeneID 50058)	DRSC14710	3.50e6	4.00e6	3.94e6
CG13858 (retired record) (GeneID 50058)	DRSC14711	3.58e6	4.13e6	3.98e6
RabX1 (GeneID 44172)	DRSC04678	3.64e6	3.98e6	4.27e6
CG13005 (GeneID 32670)	DRSC19524	3.51e6	4.05e6	3.90e6

Only “viability with MMS, replicate 1” (2 entries from above):
AGO1 (GeneID 36544) [DRSC05912]	3.92e6
Drsl1 (GeneID 326207) [DRSC22490]	4.06e6
